# Record: PubChem BioAssay AID602196 (INSERM, 2012)
# Test: 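Modifiers of cisplatin sensitivity in A549 cells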
# Cells: human A549 lung cancer cells
# Knock-down reagent: siRNA pair against human genes
# Duration: 48 h transfection before cisplatin; time from cisplatin to read-out not stated
# Conditions: cisplatin at a dose killing half of control-siRNA cells; exact dose and duration not given
# Read-out: 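Cisplatin cell death as a shift from the 50% death seen with control siRNA; siRNAs toxic or growth-blocking alone scored 0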
# Scale: two-siRNA summed score (-2 to +2): higher = both siRNAs protect from cisplatin killing; -2 means both sensitise; mean protection from cisplatin (shift in death) and protection from cisplatin (shift in death), siRNA C and protection from cisplatin (shift in death), siRNA D: higher = protection from cisplatin killing
# Call rule: 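Each siRNA scores 0 if harmful alone by LDH or WST-1, otherwise +1 if it reduces and -1 if it increases cisplatin killing; a gene is active when both siRNAs agree (sum +2 or -2)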
# Calls: active = both siRNAs shift cisplatin killing the same way; inactive = no consistent shift, or siRNA harmful alone
# This is one part, drawn at random, of about 23,000 reagents. Of all reagents, 455 (2%) got an active call. 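Active includes both protection and sensitisation; some change values fall well beyond the stated -50 to +50 range.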 The numbers tell different reagents against one gene apart. The record does not give: the amount of reagent.
Target gene,reagent,two-siRNA summed score (-2 to +2),mean protection from cisplatin (shift in death) (%),"protection from cisplatin (shift in death), siRNA C (%)","protection from cisplatin (shift in death), siRNA D (%)",Outcome
VEZF1 (vascular endothelial zinc finger 1),1,0,7.6,12,3.2,inactive
EDDM3A (epididymal protein 3A),1,0,-3.4,3.8,-10.5,inactive
OR9G4 (olfactory receptor family 9 subfamily G member 4),1,0,14.1,12,16.2,inactive
NSUN7 (NOP2/Sun RNA methyltransferase family member 7),1,0,7.4,3.4,11.4,inactive
SLC29A2,1,1,3,-3.8,9.8,inactive
UBE2S (ubiquitin conjugating enzyme E2 S),1,0,-8.2,-3.6,-12.7,inactive
PLIN3 (perilipin 3),1,0,2.6,4.9,0.3,inactive
LOC440847,1,0,6.7,12.8,0.7,inactive
LOC388847,1,1,1.5,-10.6,13.5,inactive
SHOC1 (shortage in chiasmata 1),1,1,4.2,14.9,-6.4,inactive
ATP4B (ATPase H+/K+ transporting subunit beta),1,1,13.8,15.2,12.5,inactive
ATP4B (ATPase H+/K+ transporting subunit beta),2,1,19.2,20.3,18.1,inactive
ZFYVE16 (zinc finger FYVE-type containing 16),1,0,-3,-8.9,2.9,inactive
TAPT1 (transmembrane anterior posterior transformation 1),1,1,22.6,30.7,14.5,inactive
ULK1 (unc-51 like autophagy activating kinase 1),1,-1,-8.1,-7.6,-8.5,inactive
LOC388295,1,0,19.5,-6.8,45.8,inactive
ADCY5 (adenylate cyclase 5),1,0,7.9,6,9.7,inactive
KIAA0420,1,1,21.4,13.2,29.6,inactive
SCRT2 (scratch family transcriptional repressor 2),1,0,11.9,23.6,0.3,inactive
LOC283523,1,0,5.2,2.8,7.7,inactive
ENTPD4 (ectonucleoside triphosphate diphosphohydrolase 4),1,-1,-5.3,1.2,-11.9,inactive
LOC400937,1,0,15,21,9.1,inactive
AMZ1 (archaelysin family metallopeptidase 1),1,-1,1,-14.8,16.7,inactive
PROM2 (prominin 2),1,0,5.4,13.1,-2.4,inactive
AARSD1 (alanyl-tRNA synthetase domain containing 1),1,0,5.7,7.1,4.3,inactive
KIF18A (kinesin family member 18A),1,0,8.6,25.3,-8,inactive
LOC440910,1,1,23.1,25,21.2,inactive
F9 (coagulation factor IX),1,0,-8.7,-8.2,-9.3,inactive
GSTA5 (glutathione S-transferase alpha 5),1,0,0.6,0.8,0.4,inactive
CXCL6 (C-X-C motif chemokine ligand 6),1,0,-8,-8.2,-7.8,inactive
FLT3LG (fms related receptor tyrosine kinase 3 ligand),1,0,15.4,31.9,-1.1,inactive
TMEM115 (transmembrane protein 115),1,0,8.9,6.3,11.6,inactive
DUX4L8 (double homeobox 4 like 8 (pseudogene)),1,1,15.1,-0.8,31.1,inactive
PDE10A (phosphodiesterase 10A),1,0,4.9,-14.7,24.6,inactive
KNTC1 (kinetochore associated 1),1,0,5.7,8.5,3,inactive
EPSTI1 (epithelial stromal interaction 1),1,-1,-2.2,9.1,-13.5,inactive
TCP11 (t-complex 11),1,0,9.3,0.4,18.3,inactive
EHF (ETS homologous factor),1,-1,-6.6,-16.2,3.1,inactive
LOC389748,1,0,4.4,-0.1,8.9,inactive
LOC90342,1,0,6.1,7.4,4.8,inactive
LOC441885,1,-1,-3.8,-10.5,3,inactive
CCDC9B (coiled-coil domain containing 9B),1,0,-4.1,0.3,-8.5,inactive
SLC38A4,1,0,5.4,2.4,8.4,inactive
HOXA7 (homeobox A7),1,-1,-16.5,-22.7,-10.4,inactive
LINC00336 (long independently transcribed non-coding RNA 336),1,2,21,23.3,18.7,active
CALML5 (calmodulin like 5),1,0,-1.5,-3.9,0.8,inactive
CCDC28A (coiled-coil domain containing 28A),1,0,-9.3,-8.4,-10.2,inactive
ARL5B (ARF like GTPase 5B),1,0,6.9,13.8,0,inactive
GARIN6 (golgi associated RAB2 interactor family member 6),1,0,1,1,1.1,inactive
KIR3DL1,1,0,3.5,-6.4,13.5,inactive
ZNF629 (zinc finger protein 629),1,0,4.4,5.8,3,inactive
SIX1 (SIX homeobox 1),1,1,6.4,-6.9,19.6,inactive
TPRN (taperin),1,0,13.4,-1.4,28.2,inactive
CATSPER3 (cation channel sperm associated 3),1,0,1.7,10.7,-7.3,inactive
KCNS3,1,0,0.5,1.1,-0.1,inactive
ZFP2 (ZFP2 zinc finger protein),1,0,-0.5,-7,6.1,inactive
"MEFV (MEFV innate immunity regulator, pyrin)",1,0,-1.8,-2.5,-1.2,inactive

Just “two-siRNA summed score (-2 to +2)” (4 entries from above):
F9 (coagulation factor IX) = 0
GSTA5 (glutathione S-transferase alpha 5) = 0
CXCL6 (C-X-C motif chemokine ligand 6) = 0
FLT3LG (fms related receptor tyrosine kinase 3 ligand) = 0
